PubChem BioAssay AID1224831, NIAID, 2016

Aim: 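Confirming genome-wide hits on LPS-triggered TNF-alpha induction with independent siRNA sequences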 (follow-up of hits)
System: human THP-1 B5 monocytic leukaemia cells carrying a TNF promoter luciferase reporter, made macrophage-like with PMA
Knock-down reagent: single siRNA against human genes, 50 nM
Time to read-out: about 68 h of knock-down, then 4 h LPS
Treatment: LPS (Salmonella minnesota, TLR-grade) at 10 ng/ml for 4 h; PMA 5 ng/ml present during knock-down
Measurement: 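Firefly to renilla luciferase ratio of a TNF promoter reporter after 4 h LPS, scaled to plate median, turned into robust z-score, averaged over replicates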
Reading the numbers: TNF reporter z-score: higher = stronger LPS-induced TNF reporter signal; z-score, median over gene's siRNAs: higher = stronger TNF reporter signal across the gene's siRNAs
Hit rule: 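Two-sided call: reduced or raised TNF reporter signal counts as active once mean z reaches about -1 or below, or about 1.5 or above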
Calls: active = changed TNF reporter (either direction); inactive = little change
The deposit covers about 3,500 reagents; below is a random part of them. 731 of all reagents (21%) were called active. 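Active means either lowered or raised reporter signal; the gene-median score did not drive the per-siRNA calls.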 A number with no mark means an inactive call. Reagents against one gene are numbered here.

The first 2 records, to show the layout:
FOXK1 (GeneID 221937) #1 → TNF reporter z-score, replicate mean = -1.31 (active); z-score, median over gene's siRNAs = 0.27
FOXK1 (GeneID 221937) #2 → TNF reporter z-score, replicate mean = 0.1; z-score, median over gene's siRNAs = 0.27

The list itself, from the start:
FOXK1 (GeneID 221937) #1 → TNF reporter z-score, replicate mean = -1.31 (active); z-score, median over gene's siRNAs = 0.27
FOXK1 (GeneID 221937) #2 → TNF reporter z-score, replicate mean = 0.1; z-score, median over gene's siRNAs = 0.27
FOXK1 (GeneID 221937) #3 → TNF reporter z-score, replicate mean = 1.49; z-score, median over gene's siRNAs = 0.27
FOXK1 (GeneID 221937) #4 → TNF reporter z-score, replicate mean = 0.92; z-score, median over gene's siRNAs = 0.27
FOXK1 (GeneID 221937) #5 → TNF reporter z-score, replicate mean = 0.44; z-score, median over gene's siRNAs = 0.27
FOXK1 (GeneID 221937) #6 → TNF reporter z-score, replicate mean = -0.04; z-score, median over gene's siRNAs = 0.27
CNR2 (GeneID 1269) #1 → TNF reporter z-score, replicate mean = 0.58; z-score, median over gene's siRNAs = 0.47
CNR2 (GeneID 1269) #2 → TNF reporter z-score, replicate mean = -0.59; z-score, median over gene's siRNAs = 0.47
CNR2 (GeneID 1269) #3 → TNF reporter z-score, replicate mean = 1.02; z-score, median over gene's siRNAs = 0.47
CNR2 (GeneID 1269) #4 → TNF reporter z-score, replicate mean = 0.36; z-score, median over gene's siRNAs = 0.47
CNR2 (GeneID 1269) #5 → TNF reporter z-score, replicate mean = -0.92; z-score, median over gene's siRNAs = 0.47
CNR2 (GeneID 1269) #6 → TNF reporter z-score, replicate mean = 4.46 (active); z-score, median over gene's siRNAs = 0.47
INIP (GeneID 58493) #1 → TNF reporter z-score, replicate mean = 0.49; z-score, median over gene's siRNAs = 0.61
INIP (GeneID 58493) #2 → TNF reporter z-score, replicate mean = -0.73; z-score, median over gene's siRNAs = 0.61
INIP (GeneID 58493) #3 → TNF reporter z-score, replicate mean = 0.73; z-score, median over gene's siRNAs = 0.61
INIP (GeneID 58493) #4 → TNF reporter z-score, replicate mean = 3.42 (active); z-score, median over gene's siRNAs = 0.61
INIP (GeneID 58493) #5 → TNF reporter z-score, replicate mean = 1.61 (active); z-score, median over gene's siRNAs = 0.61
INIP (GeneID 58493) #6 → TNF reporter z-score, replicate mean = 0.16; z-score, median over gene's siRNAs = 0.61
